Source: patent publication US20180280528A1, “ANTIFOLATE CONJUGATES FOR TREATING INFLAMMATION” (ENDOCYTE, INC., priority 2015, published 2018)
Some entries share one result that the patent states for a list of compounds.

Test: Pharmacokinetics in rats
Settings: rat; each conjugate SC 500 nmol/kg
Experimental: Each rat was used for collection of blood samples for a maximum of 4 time points. […] The samples were centrifuged for 3 minutes at 2000×g (Eppendorf 5417R centrifuge) to obtain plasma. The plasma samples were stored at −80° C. until LC-MS/MS analysis.
LC-MS/MS analysis utilized a Waters Acquity UPLC system paired with a Waters Quattro Premier XE tandem quadrupole mass spectrometer operating in ESI positive mode. Prior to injection, K3EDTA plasma samples were processed using a Phenomenex Strata X-A solid phase extraction (SPE) plate. All plasma samples were fortified with N-Maleoyl-β-alanine, mannitol, and acetic acid. Briefly, 50 μL of plasma diluted with 50 μL of internal standard solution and 500 μL 1000:4:1.5 water:ammonium hydroxide:formic acid was mixed and loaded onto a preconditioned Strata X-A SPE plate. Aqueous and organic washes were then applied followed by elution of all analytes with 300:200:7.5 methanol:water:formic acid. The samples were evaporated until approximately 30 μL remained in all wells and 30 μL of 9:1 water:ammonium hydroxide was then added. Finally, the plate was sealed, mixed, and centrifuged prior to transfer to the 2-8° C. […]
For EC1669 MS/MS analysis, EC1669 and its known major metabolites, EC1886 and […], were optimized and monitored. […] The table below lists transitions for analytes and internal standards monitored for LC-MS/MS bioanalysis.

With `N=c1[nH]c(N)nc2ncc(CNc3ccc(C(=O)N[C@@H](CCC(=O)NNC(=O)OCCSSC[C@@H](NC(=O)[C@H](CCC(=O)NC[C@H](O)[C@@H](O)[C@H](O)[C@H](O)CO)NC(=O)[C@@H](CCC(=O)O)NC(=O)[C@H](CCC(=O)NC[C@H](O)[C@@H](O)[C@H](O)[C@H](O)CO)NC(=O)[C@@H](CCC(=O)O)NC(=O)[C@H](CCC(=O)NC[C@H](O)[C@@H](O)[C@H](O)[C@H](O)CO)NC(=O)CC[C@H](NC(=O)c4ccc(NCc5cnc6nc(N)[nH]c(=O)c6n5)cc4)C(=O)O)C(=O)O)C(=O)O)cc3)nc12` [EC1669, reference compound] the “time post dosing up to which plasma levels of the conjugate were quantifiable” value was “up to 4 hours”.
